{"source": "PubChem BioAssay AID1259254 | NCATS – 2017", "aim": "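Genome-wide screen for genes that prevent DNA re-replication in cancer cells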 (primary screen)", "system": "human HCT116 colorectal cancer cells", "reagents": "single siRNA against human genes", "time to read-out": "3 days", "detection": "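Imaged Hoechst DNA stain sorts each cell into a cycle phase by DNA amount; per plate, G2 fraction set to 0% for non-targeting and 100% for GMNN siRNA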", "scale": "G2 robust z-score: higher = more G2 cells, more excess DNA replication", "active means": "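Active siRNAs have a G2 robust z of 5 or more median absolute deviations over the median, which in these data means about 38% or higher of GMNN control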", "note": "Shown is a random part of about 59,000 reagents tested. In the full data, about 1,550 (2.6%) were called active. 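G2 share is only a proxy for re-replication; each gene was hit by three separate siRNAs, and active genes were retested.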 Entries without a mark were called inactive. Not all columns of the deposit are shown. The record does not give: the amount of reagent."}
{"gene knocked down": "CLTCL1", "PubChem SID": "SID160719731", "G2 robust z-score": 1.77}
{"gene knocked down": "CLTCL1", "PubChem SID": "SID160719732", "G2 robust z-score": 3.96}
{"gene knocked down": "CLTCL1", "PubChem SID": "SID160719733", "G2 robust z-score": 0.198}
{"gene knocked down": "PRSS50", "PubChem SID": "SID160739117", "G2 robust z-score": 0.92}
{"gene knocked down": "PRSS50", "PubChem SID": "SID160739118", "G2 robust z-score": 1.54}
{"gene knocked down": "PRSS50", "PubChem SID": "SID160739119", "G2 robust z-score": -0.614}
{"gene knocked down": "KRT19", "PubChem SID": "SID160776427", "G2 robust z-score": 1.96}
{"gene knocked down": "KRT19", "PubChem SID": "SID160776428", "G2 robust z-score": 1.78}
{"gene knocked down": "KRT19", "PubChem SID": "SID160776432", "G2 robust z-score": 1.07}
{"gene knocked down": "TSPAN16", "PubChem SID": "SID160738055", "G2 robust z-score": -0.328}
{"gene knocked down": "TSPAN16", "PubChem SID": "SID160738057", "G2 robust z-score": -0.676}
{"gene knocked down": "TSPAN16", "PubChem SID": "SID160738058", "G2 robust z-score": 1.31}

Single entries from above.
For “G2 robust z-score”, KRT19 [SID160776427] shows 1.96
CLTCL1 [SID160719731], G2 robust z-score → 1.77
